{"source": "patent US20240173341A1", "about": "“COMPOSITION FOR AMELIORATING OR TREATING DEMENTIA CONTAINING 2'-FUCOSYLLACTOSE” (Advanced Protein Technologies Corp., priority 2022, published 2024)", "system": "amyloid beta accumulated in mouse brain tissue", "assay": "Amyloid beta accumulation analysis (thioflavin staining of cleared brain tissue)", "assay_type": "in vivo", "settings": "Donepezil group, 5×FAD mice", "description": "The experimental animals used herein were 24-week-old 5×FAD (Aβ plaques) Alzheimer's models. The experimental animals were raised at a temperature of 22±3° C., at a relative humidity of 30±10%, and at an illuminance of 150 to 300 Lux for a lighting period of 12 hours (08:00˜20:00), and five or less animals were raised in each polycarbonate cage.\nThe term “dementia group” refers to 5×FAD mice administered distilled water, and the term “normal group” refers to wild-type mice administered distilled water.\nFor the amyloid beta accumulated in mouse brain tissue, brain tissue over 1 mm in size was made transparent using a tissue transparency technique, stained with thioflavin, imaged in three dimensions, and then quantified as plaques for each brain region using the Imaris program.\nIn addition, three 1 mm-thick brain tissues were collected from each group, the volumes thereof were measured, and the total number of accumulated amyloid beta was measured.", "data": [{"smiles": "COc1cc2c(cc1OC)C(=O)C(CC1CCN(Cc3ccccc3)CC1)C2", "note": "(centres unmarked) [Donepezil, donepezil, reference compound]", "values": [{"measurement": "Ab number", "setting": "1st brain tissue", "result": 20000}, {"measurement": "Ab number/volume", "setting": "1st brain tissue", "result": 7547}, {"measurement": "Ab number", "setting": "2nd brain tissue", "result": 50500}, {"measurement": "Ab number/volume", "setting": "2nd brain tissue", "result": 18364}, {"measurement": "Ab number", "setting": "3rd brain tissue", "result": 40500}, {"measurement": "Ab number/volume", "setting": "3rd brain tissue", "result": 14945}, {"measurement": "Ab number", "setting": "Avr. of three brain tissues", "result": 37000}, {"measurement": "Ab number/volume", "setting": "Avr. of three brain tissues", "result": 13618}]}]}
